This test has as its system Escherichia coli. Description: Antibacterial activity against Escherichia coli HS294 after 18 hrs by microtitre plate method. Type of test: functional.

For one compound, MIC results are on record in ChEMBL document CHEMBL1147255, “Isolation and structure elucidation of Sch 642305, a novel bacterial DNA primase inhibitor produced by Penicillium verrucosum” (J Nat Prod, 2003).

In general, MIC refers to the lowest concentration found to suppress growth. A high value points to a less susceptible organism.

Values after ≈ are worked out from the molar mass of the structure shown.

`CN[C@H](CC(C)C)C(=O)N[C@H]1C(=O)N[C@@H](CC(N)=O)C(=O)N[C@H]2C(=O)N[C@H]3C(=O)N[C@H](C(=O)N[C@H](C(=O)O)c4cc(O)cc(O)c4-c4cc3ccc4O)[C@H](O)c3ccc(c(Cl)c3)Oc3cc2cc(c3O[C@@H]2O[C@H](CO)[C@@H](O)[C@H](O)[C@H]2O[C@H]2C[C@](C)(N)[C@H](O)[C@H](C)O2)Oc2ccc(cc2Cl)[C@H]1O` [VANCOMYCIN] yielded a minimal inhibitory concentration (MIC) of 16 µg/mL (≈ 11 µM).
